PubChem BioAssay AID1671195 | Yale University, 2021

- Screen: 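Regulators of LDL receptor activity judged by labelled LDL uptake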 (primary screen)
- Cell system: human Huh7 hepatoma cells
- Knock-down reagent: siRNA pool against human genes, 18 nM
- Time to read-out: about 2 to 2.5 days of knockdown, then 8 h LDL uptake
- Challenge: DiI-labelled LDL at 30 µg/ml for 8 h, in lipoprotein-deficient serum medium
- Measurement: 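Fluorescent LDL signal imaged in cells, scaled to the plate median, robust z-score for each replicate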
- Scale: robust z-score: higher = more LDL uptake after knockdown
- Rule for the call: 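a gene counts as active if at least two replicate z-scores exceed ±2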
This is an unselected part of about 22,000 reagents tested. Over the whole deposit, about 1,510 (6.9%) got an active call. 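Active includes knockdowns raising or lowering LDL uptake; positive z-scores mean more uptake, negative mean less.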

gene knocked down	robust z-score, replicate 1	robust z-score, replicate 2	robust z-score, replicate 3	call
LOC387783 (retired record)	-0.432	-0.312	-0.397	inactive
BIN2 (bridging integrator 2)	-2.46	-2.74	-2.38	active
PTPRCAP	-0.234	0.335	-0.211	inactive
TECTB (tectorin beta)	-0.0152	0.104	1.19	inactive
PTS (6-pyruvoyltetrahydropterin synthase)	0.0792	-0.23	-0.192	inactive
INTS7 (integrator complex subunit 7)	3.13	4.54	3.19	active
DNM1 (dynamin 1)	2.15	1.49	1.74	inactive
HBM (hemoglobin subunit mu)	2.69	-0.323	-2.67	inactive
LBX1 (ladybird homeobox 1)	-1.47	-1.31	-1.09	inactive
ZNF486 (zinc finger protein 486)	1.32	0.537	1.36	inactive
SNAPC1 (small nuclear RNA activating complex polypeptide 1)	2.14	2.76	1.69	active
PLPPR5 (phospholipid phosphatase related 5)	2.33	1.55	2.46	active
DOCK1 (dedicator of cytokinesis 1)	0.329	0.236	0.0903	inactive
CHML (CHM like Rab escort protein)	-1.85	-1.97	-0.631	inactive
SLFN12 (schlafen family member 12)	0.876	1.07	2.77	inactive
OR13C3 (olfactory receptor family 13 subfamily C member 3)	0.0918	-0.162	-0.065	inactive
LOC439998 (retired record)	-0.767	0.769	-0.282	inactive
LOC441164 (retired record)	1.45	1.66	1.31	inactive
DMTN (dematin actin binding protein)	-1.14	0.629	-1.01	inactive
PRR23E (PRR23 family member E)	0.0863	0.639	0.303	inactive
ACYP2 (acylphosphatase 2)	-0.611	-0.884	-0.575	inactive
CD300E (CD300e molecule)	-0.769	1.78	-0.504	inactive
TBC1D3F (TBC1 domain family member 3F)	0.441	0.52	0.0668	inactive
CXCR3 (C-X-C motif chemokine receptor 3)	-0.735	-0.755	-0.0962	inactive
PRKAR2A	-1.22	-1.16	-1.53	inactive
FCRL2 (Fc receptor like 2)	-1.23	-0.0533	-1.06	inactive
KIDINS220 (kinase D interacting substrate 220)	0.14	1.36	0.214	inactive
IFITM3 (interferon induced transmembrane protein 3)	-1.55	0.188	0.252	inactive
FAM201A (family with sequence similarity 201 member A)	0.531	1.53	1.07	inactive
ALOX12 (arachidonate 12-lipoxygenase, 12S type)	-0.00947	-0.105	0.128	inactive
LINC00924 (long independently transcribed non-coding RNA 924)	1.74	1.74	2.71	inactive
CKM (creatine kinase, M-type)	1.33	0.895	2.45	inactive
RASSF7 (Ras association domain family member 7)	-0.908	-0.92	-0.483	inactive
MAGEA11 (MAGE family member A11)	0.861	0.448	0.225	inactive
LINC00518 (long independently transcribed non-coding RNA 518)	-0.415	-0.123	-0.118	inactive
TRH (thyrotropin releasing hormone)	1.07	1.35	1.6	inactive
ICMT-DT (ICMT divergent transcript)	-0.781	-0.712	-1.26	inactive
ZBTB7C (zinc finger and BTB domain containing 7C)	0.189	-0.103	0.0498	inactive
IPCEF1 (interaction protein for cytohesin exchange factors 1)	-0.838	0.494	0.631	inactive
DCUN1D3 (defective in cullin neddylation 1 domain containing 3)	0.89	0.15	-0.378	inactive
LOC441180 (retired record)	0.689	-0.145	-0.316	inactive
CAMLG (calcium modulating ligand)	-1.2	-0.184	-0.951	inactive
TIMM17B (translocase of inner mitochondrial membrane 17B)	1.49	0.305	1.75	inactive
TIMM9 (translocase of inner mitochondrial membrane 9)	0.447	1.72	1.4	inactive
ATXN7L2 (ataxin 7 like 2)	-1.4	-1.41	-2.13	inactive
SPAG17 (sperm associated antigen 17)	-0.532	-0.0613	-0.041	inactive
AVPR2 (arginine vasopressin receptor 2)	0.126	-0.884	-0.513	inactive
LOC442115 (retired record)	-0.869	-0.539	-0.131	inactive
RPS29 (ribosomal protein S29)	-0.433	0.157	-0.786	inactive
OR13C9 (olfactory receptor family 13 subfamily C member 9)	-1.07	-1.05	-1.1	inactive
LINC02213 (long independently transcribed non-coding RNA 2213)	0.393	0.555	0.214	inactive
PRXL2B (peroxiredoxin like 2B)	1.16	0.121	0.853	inactive
VPS9D1 (VPS9 domain containing 1)	2.25	1.73	2.02	active
RASGEF1C (RasGEF domain family member 1C)	1.14	1.65	1.12	inactive
VWA3B (von Willebrand factor A domain containing 3B)	-0.467	-0.241	-0.623	inactive
OPN4 (opsin 4)	1.55	1.46	2.45	inactive
DBI (diazepam binding inhibitor, acyl-CoA binding protein)	-0.813	-0.704	-2.34	inactive
C11orf65 (chromosome 11 open reading frame 65)	-1.46	0.0382	-0.642	inactive
KRT32 (keratin 32)	0.97	-0.788	0.174	inactive
FBXO8 (F-box protein 8)	1.31	2.58	3.04	active
NANOS1 (nanos C2HC-type zinc finger 1)	0.00685	0.142	0.2	inactive
BMP2KL (BMP2 inducible kinase like (pseudogene))	0.474	0.7	0.74	inactive
SLC25A42	-0.099	-0.383	-0.394	inactive
IL24 (interleukin 24)	-1.16	-1.16	-1.1	inactive
PRPF6 (pre-mRNA processing factor 6)	0.186	-0.167	1.41	inactive
TCEAL2 (transcription elongation factor A like 2)	2.37	0.97	1.68	inactive
EGR1 (early growth response 1)	-0.539	-0.256	-1.48	inactive
KICS2 (KICSTOR subunit 2)	-0.156	0.0713	-0.423	inactive

Reagents above with an active call:
gene knocked down	robust z-score, replicate 1	robust z-score, replicate 2	robust z-score, replicate 3	call
BIN2 (bridging integrator 2)	-2.46	-2.74	-2.38	active
INTS7 (integrator complex subunit 7)	3.13	4.54	3.19	active
SNAPC1 (small nuclear RNA activating complex polypeptide 1)	2.14	2.76	1.69	active
PLPPR5 (phospholipid phosphatase related 5)	2.33	1.55	2.46	active
VPS9D1 (VPS9 domain containing 1)	2.25	1.73	2.02	active
FBXO8 (F-box protein 8)	1.31	2.58	3.04	active
